Experimental data from PubChem BioAssay AID504444 (National Center for Advancing Translational Sciences (NCATS), 2011).
The whole screen tested about 360,000 compounds, of which about 7,500 (2.1%) were called active. Inconclusive results, whose numbers are uncertain, are shown with a selection of clear calls. The call rests on the fitted dose curve; in most records, active means well fitted inhibition curve with a large enough effect; inconclusive means small, poorly fitted or top-dose-only effect, or effect the other way; inactive means flat fitted curve, though single readings scatter. Potencies beside an inconclusive call are fits to weak or partial responses and may not hold up.

Assay: Nrf2 qHTS screen for inhibitors; further: nearly all actives have a fitted effect of over 60% in size
Details: A549 ARE-Fluc reporter, luciferase luminescence, 18-24 h; activity change, negative = inhibition: at 46 µM (top of the series)
Procedure, shortened: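 A549 ARE_Fluc cells (5000/well, 5% FBS OPTI-MEM) pre-incubated 2 h, then treated with compounds 18-24 h at 37C/5% CO2 in concentration-response. CellTiter-Fluor viability read first; BugLite luciferase luminescence after 15 min at room temperature gives Nrf2 activity.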
On the % scale 0 is the no-effect control and ±100 the full control effect; potency means the concentration at half of the fitted maximal effect.

Which Potency does the source give for `COc1ccccc1N1CCN(Cc2cccs2)CC1` here?
Its Potency is inconclusive: 0.116 µM [falling, full curve, poor fit].

With `CCOc1ccc(-c2cc(C(=O)Nc3ccc(NC(C)=O)cc3)no2)cc1` as the compound, how does the Potency read?
Its Potency is inconclusive: 1.46 µM [activator, full curve, poor fit].

For `O=C(O)CCCNc1cc(N2CCN(C3CCCCC3)CC2)c2noc3c2c1C(=O)c1ccccc1-3`, which activity change, negative = inhibition is on record?
The activity change, negative = inhibition was inactive: -1.91% [at 9.27 µM].

For `C/C(=N\NC(=O)c1ccccc1NC(=O)c1ccc(Cl)cc1)c1ccncc1`, which Potency is on record?
Its Potency is inconclusive: 9.2 µM [falling, partial curve, poor fit].

Which “activity change, negative = inhibition” value does the source give for `Cc1ccc2onc(CNC(=O)NCc3cccc(Cl)c3)c2c1` here?
Its value is inactive: 16.9%.

With `COC(=O)C1=CN(c2ccc(Cl)cc2)C=C(C(=O)OC)C1c1ccc([N+](=O)[O-])cc1` as the compound, how does the Potency read?
Its Potency is inconclusive: 16.4 µM [activator, partial curve, poor fit].

With `CCCS(=O)(=O)N1CC(=O)N(c2cc(C)ccc2C)C(C)(C(=O)NC2CCCCCC2)C1` (stereo unspecified) as the compound, how does the Potency read?
The Potency was inconclusive: 7.31 µM [activator, full curve, poor fit].

Which “activity change, negative = inhibition” value does the source give for `CCCC(=O)Nc1nc2nc(-c3ccccc3)cc(-c3ccccc3)n2n1` here?
The value was inactive: -17.4%.

For `O=C1c2ccccc2C(=O)N1CCC1=CCCCC1`, which Potency is on record?
Its Potency is inconclusive: 25.9 µM [activator, single point].

With `COc1cccc(NC(=O)Nc2cc(C)ccc2OC)c1` as the compound, how does the Potency read?
Its Potency is inconclusive: 29.1 µM [activator, partial curve, poor fit].

With `Cc1ccc2cc(C#N)c(N3CCCC3)nc2c1C` as the compound, how does the Potency read?
The Potency was inconclusive: 25.9 µM [activator, single point].

For `CN(C)S(=O)(=O)c1ccc(C(=O)NC2CCCc3ccccc32)cc1` (stereo unspecified), which Potency is on record?
The Potency was inconclusive: 2.91 µM [activator, partial curve, poor fit].

Which Potency does the source give for `CC(C(=O)Nc1ccc(C#N)cc1)N(C)CC(=O)Nc1ccccc1Br` (stereo unspecified) here?
Its Potency is inconclusive: 18.4 µM [falling, partial curve].

For `COc1ccc(CNC(=O)c2csc(Cc3ccc(Cl)cc3)n2)cc1`, which Potency is on record?
Its Potency is active: 23.1 µM.

For `CCOc1ccc(CCNC(=O)c2cccc(-n3cnnn3)c2)cc1OCC`, which Potency is on record?
The Potency was inconclusive: 23.1 µM [falling, partial curve, poor fit].

With `CSc1cccc(NC(=O)CN2CCN(Cc3ccccc3C)S2(=O)=O)c1` as the compound, how does the Potency read?
Its Potency is inconclusive: 2.31 µM [activator, partial curve, poor fit].

For `Cc1cccc(N2C(=O)CS(=O)(=O)C23C(=O)N(Cc2c(F)cccc2Cl)c2ccccc23)c1` (stereo unspecified), which Potency is on record?
Its Potency is inconclusive: 11.6 µM [falling, partial curve].

With `Cc1ccc(-c2nnc(-c3cccc(NC(=O)c4cccs4)c3)o2)cc1` as the compound, how does the Potency read?
Its Potency is inconclusive: 29.1 µM [falling, single point].

For `O=C1C=C(O)c2cccc(O)c2C1=O`, which “activity change, negative = inhibition” value is on record?
The value was inactive: -26.7%.

Which Potency does the source give for `C=C(c1ccccc1Cl)[n+]1ccccc1` here?
The Potency was active: 7.31 µM.

Which Potency does the source give for `CCOC(=O)N1CCN(C(=O)c2ccc3c(c2)NC(=O)/C(=C/c2ccccc2)S3)CC1` here?
Its Potency is inconclusive: 20.6 µM [falling, single point].

For `O=c1cc(CSc2nc(NCc3ccccc3)c3ccccc3n2)nc2ccc(Cl)cn12`, which “activity change, negative = inhibition” value is on record?
The value was inactive: 10%.

With `O=[N+]([O-])c1ccccc1NC(=S)N/N=C/c1ccc(O)c(O)c1` as the compound, how does the Potency read?
Its Potency is inconclusive: 16.4 µM [activator, single point].

For `O=C(NCC1CCN(c2ccc(S(=O)(=O)N3CCOCC3)cc2)CC1)c1cccc(Cl)c1`, which Potency is on record?
Its Potency is inconclusive: 14.6 µM [falling, partial curve, poor fit].

Which Potency does the source give for `Cc1cc(NC(=O)CS(=O)(=O)c2cn(Cc3ccc(F)cc3)c3ccccc23)no1` here?
Its Potency is active: 20.6 µM.

Which Potency does the source give for `CCC(=O)Nc1cc(C(=O)OCC(=O)c2ccc(Cl)cc2Cl)ccc1C` here?
Its Potency is inconclusive: 29.1 µM [falling, single point].

For `Cc1ccccc1CN1C(=O)C2(c3ccccc31)N(c1ccccc1)C(=O)CS2(=O)=O` (stereo unspecified), which Potency is on record?
Its Potency is inconclusive: 9.2 µM [activator, partial curve, poor fit].

With `CN(C)c1ccc(/C=C(\C#N)C(=O)Nc2nc3c(s2)CCN(Cc2ccccc2)C3)cc1` as the compound, how does the Potency read?
Its Potency is inconclusive: 23.1 µM [falling, single point].

For `Cc1nnc2n1N=CC=C(c1ccccc1)S2`, which Potency is on record?
The Potency was inconclusive: 23.1 µM [falling, partial curve, poor fit].

With `Nc1nonc1-c1nc2ccccc2n1Cc1cccc(Cl)c1` as the compound, how does the Potency read?
Its Potency is inconclusive: 18.4 µM [activator, partial curve].

Which “activity change, negative = inhibition” value does the source give for `CC1CCN(c2ccc(C(=O)O)cc2NS(=O)(=O)c2ccc(Br)cc2)CC1` here?
The value was inactive: -7.71%.

For `O=C(Nc1ccc(F)cc1)N1CCCN(c2nccc(C(F)(F)F)n2)CC1`, which Potency is on record?
The Potency was active: 11.6 µM.

Which Potency does the source give for `O=C(CN1c2ccccc2Sc2ccccc21)NNC(=O)Nc1cccc(Cl)c1` here?
The Potency was inconclusive: 29.1 µM [activator, single point].

For `COc1ccc(CCNC(=O)CCS(=O)(=O)c2cccc3nsnc23)cc1OC`, which “activity change, negative = inhibition” value is on record?
Its value is inactive: 14.4%.

For `COc1ccc(OCc2cc(C(=O)N3C[C@@H](C)O[C@@H](C)C3)no2)c(Cl)c1`, which Potency is on record?
Its Potency is inconclusive: 6.51 µM [activator, partial curve].

With `CN(C)S(=O)(=O)c1ccc(N2CCCC2)c(C(=O)OCC(=O)N2CCN(c3ccccc3)CC2)c1` as the compound, how does the Potency read?
Its Potency is inconclusive: 0.326 µM [falling, partial curve].

With `CC(=O)Nc1ccc(S(=O)(=O)N2CCC(c3nnnn3-c3ccccc3)CC2)cc1` as the compound, how does the Potency read?
The Potency was inconclusive: 29.1 µM [falling, single point].

Which “activity change, negative = inhibition” value does the source give for `CCOc1ccc(-n2nc(CO)c(C(=O)NCCCc3ccccc3)n2)cc1` here?
Its value is inactive: 24.1%.

Which Potency does the source give for `Cc1cc(C)c(C)c(OC(=O)c2sc(Cl)nc2C)c1` here?
Its Potency is inconclusive: 9.2 µM [falling, partial curve].

With `Cc1ccc(NC(=O)c2cc([N+](=O)[O-])ccc2NCc2cccnc2)cc1Cl` as the compound, how does the Potency read?
The Potency was inconclusive: 10.3 µM [falling, partial curve, poor fit].

Which Potency does the source give for `Cc1ccc(C)c(NC(=O)c2c(Cl)nc3ccccn23)c1` here?
The Potency was inconclusive: 23.1 µM [activator, single point].

For `COCCn1c(C)cc(C(=O)CSc2nnc3ccccn23)c1C`, which Potency is on record?
Its Potency is inconclusive: 13 µM [falling, single point].

For `O=C1/C(=C\Nc2ccc(Cl)cc2)CCN1c1ncccn1`, which Potency is on record?
The Potency was inconclusive: 3.66 µM [activator, single point].

For `CN(Cc1ccccc1)C(=O)CCC1CCN(C(=O)CCC(F)(F)F)CC1`, which Potency is on record?
The Potency was inconclusive: 5.8 µM [activator, partial curve, poor fit].

Which “activity change, negative = inhibition” value does the source give for `COc1ccccc1CCC(=O)Nc1ncc(C)s1` here?
Its value is inactive: 5.81%.

With `COc1ccc(O)c(/C=N/NC(=O)c2cccc(N3CCCC3=O)c2)c1` as the compound, how does the “activity change, negative = inhibition” value read?
The value was inactive: 3.65%.

For `Cc1nn(-c2ccccc2)c(C)c1NC(=O)COc1ccc(Br)cc1Cl`, which Potency is on record?
Its Potency is inconclusive: 20.6 µM [falling, single point].

For `CS(=O)(=O)N(Cc1nc(-c2ccc(F)cc2)no1)c1ccccc1Cl`, which “activity change, negative = inhibition” value is on record?
Its value is inactive: -22.8%.

With `O=C(Nc1ccc(Oc2ccccc2)cc1)c1ccco1` as the compound, how does the Potency read?
Its Potency is inconclusive: 13 µM [activator, partial curve].

Which Potency does the source give for `CCNc1nc(SCC(=O)Nc2ccc(Cl)c(Cl)c2)nc(N(C)C)n1` here?
Its Potency is inconclusive: 0.116 µM [falling, full curve, poor fit].

With `CC1(CCc2ccccc2)NC(=S)N(c2ccccc2)N1` (stereo unspecified) as the compound, how does the “activity change, negative = inhibition” value read?
The value was inactive: 9.32%.

With `CC(C)C(NC(=O)C(c1ccccc1)c1ccccc1)c1nc2ccccc2[nH]1` (stereo unspecified) as the compound, how does the Potency read?
Its Potency is inconclusive: 23.1 µM [falling, partial curve, poor fit].

Which Potency does the source give for `Cc1ccc(NC(=O)CSc2nnc(CCCCCNC(=O)OC(C)(C)C)o2)c(C)c1` here?
Its Potency is active: 16.4 µM.

For `COc1ccc(C)cc1Nc1n[n+](-c2ccccc2)c(-c2c(Cl)cccc2Cl)s1`, which Potency is on record?
The Potency was inconclusive: 29.1 µM [falling, single point].

With `Cn1nc(C(C)(C)C)c(NC(=O)c2sccc2Cl)c1C(C)(C)C` as the compound, how does the Potency read?
Its Potency is inconclusive: 0.731 µM [activator, full curve, poor fit].

With `CCOC(=O)/C(C#N)=C\c1c(OCC)n(CC)c2ccccc12` as the compound, how does the Potency read?
Its Potency is inconclusive: 25.9 µM [falling, single point].

Which Potency does the source give for `O=C(N/N=C/c1c[nH]c2ccccc12)c1ccc2c(c1)OCCO2` here?
The Potency was inconclusive: 18.4 µM [activator, single point].

With `CCn1c(SCC(=O)N2CCCc3ccccc32)nc2c(c1=O)SC(C)C2` (stereo unspecified) as the compound, how does the Potency read?
The Potency was inconclusive: 2.91 µM [falling, partial curve, poor fit].

Which Potency does the source give for `C/C(=N\NC(=O)c1nnn(-c2nonc2N)c1C(C)C)c1ccncc1` here?
The Potency was inconclusive: 0.116 µM [falling, full curve, poor fit].

With `Cc1ccc(NC(=O)CCSc2nc(-c3ccco3)cc(C(F)(F)F)n2)cc1F` as the compound, how does the Potency read?
The Potency was active: 10.3 µM.

With `O=C(Nc1nc(-c2ccccc2)cs1)C1CCCCN1S(=O)(=O)c1ccccc1` (stereo unspecified) as the compound, how does the Potency read?
Its Potency is inconclusive: 29.1 µM [falling, single point].

Which Potency does the source give for `CCN(Cc1ccccc1)S(=O)(=O)c1cc(C(=O)NC2CCCCCC2)ccc1OC` here?
Its Potency is inconclusive: 20.6 µM [falling, single point].

With `CCOC(=O)c1cccc(Nc2cc(-c3ccccc3)ncn2)c1` as the compound, how does the Potency read?
The Potency was inconclusive: 32.6 µM [falling, single point].

For `COc1ccc(-c2c3c(=O)n(C)c(=O)n(C)c3cn2C2CCCCC2)cc1`, which Potency is on record?
Its Potency is inconclusive: 32.6 µM [falling, partial curve, poor fit].

Which Potency does the source give for `O=C(NCCc1ccncc1)Nc1ccc(Cl)cc1` here?
The Potency was inconclusive: 29.1 µM [activator, single point].

Which “activity change, negative = inhibition” value does the source give for `CCOC(=O)c1[nH]c2ccc(OC)cc2c1NC(=O)CN1CCSCC1` here?
Its value is inactive: 18.4%.
